# Data reported in paper PMC10338684.
# Protein sequences, listed by entry. Tags and fused reporters are not part of them.
# UniProt Q9M658: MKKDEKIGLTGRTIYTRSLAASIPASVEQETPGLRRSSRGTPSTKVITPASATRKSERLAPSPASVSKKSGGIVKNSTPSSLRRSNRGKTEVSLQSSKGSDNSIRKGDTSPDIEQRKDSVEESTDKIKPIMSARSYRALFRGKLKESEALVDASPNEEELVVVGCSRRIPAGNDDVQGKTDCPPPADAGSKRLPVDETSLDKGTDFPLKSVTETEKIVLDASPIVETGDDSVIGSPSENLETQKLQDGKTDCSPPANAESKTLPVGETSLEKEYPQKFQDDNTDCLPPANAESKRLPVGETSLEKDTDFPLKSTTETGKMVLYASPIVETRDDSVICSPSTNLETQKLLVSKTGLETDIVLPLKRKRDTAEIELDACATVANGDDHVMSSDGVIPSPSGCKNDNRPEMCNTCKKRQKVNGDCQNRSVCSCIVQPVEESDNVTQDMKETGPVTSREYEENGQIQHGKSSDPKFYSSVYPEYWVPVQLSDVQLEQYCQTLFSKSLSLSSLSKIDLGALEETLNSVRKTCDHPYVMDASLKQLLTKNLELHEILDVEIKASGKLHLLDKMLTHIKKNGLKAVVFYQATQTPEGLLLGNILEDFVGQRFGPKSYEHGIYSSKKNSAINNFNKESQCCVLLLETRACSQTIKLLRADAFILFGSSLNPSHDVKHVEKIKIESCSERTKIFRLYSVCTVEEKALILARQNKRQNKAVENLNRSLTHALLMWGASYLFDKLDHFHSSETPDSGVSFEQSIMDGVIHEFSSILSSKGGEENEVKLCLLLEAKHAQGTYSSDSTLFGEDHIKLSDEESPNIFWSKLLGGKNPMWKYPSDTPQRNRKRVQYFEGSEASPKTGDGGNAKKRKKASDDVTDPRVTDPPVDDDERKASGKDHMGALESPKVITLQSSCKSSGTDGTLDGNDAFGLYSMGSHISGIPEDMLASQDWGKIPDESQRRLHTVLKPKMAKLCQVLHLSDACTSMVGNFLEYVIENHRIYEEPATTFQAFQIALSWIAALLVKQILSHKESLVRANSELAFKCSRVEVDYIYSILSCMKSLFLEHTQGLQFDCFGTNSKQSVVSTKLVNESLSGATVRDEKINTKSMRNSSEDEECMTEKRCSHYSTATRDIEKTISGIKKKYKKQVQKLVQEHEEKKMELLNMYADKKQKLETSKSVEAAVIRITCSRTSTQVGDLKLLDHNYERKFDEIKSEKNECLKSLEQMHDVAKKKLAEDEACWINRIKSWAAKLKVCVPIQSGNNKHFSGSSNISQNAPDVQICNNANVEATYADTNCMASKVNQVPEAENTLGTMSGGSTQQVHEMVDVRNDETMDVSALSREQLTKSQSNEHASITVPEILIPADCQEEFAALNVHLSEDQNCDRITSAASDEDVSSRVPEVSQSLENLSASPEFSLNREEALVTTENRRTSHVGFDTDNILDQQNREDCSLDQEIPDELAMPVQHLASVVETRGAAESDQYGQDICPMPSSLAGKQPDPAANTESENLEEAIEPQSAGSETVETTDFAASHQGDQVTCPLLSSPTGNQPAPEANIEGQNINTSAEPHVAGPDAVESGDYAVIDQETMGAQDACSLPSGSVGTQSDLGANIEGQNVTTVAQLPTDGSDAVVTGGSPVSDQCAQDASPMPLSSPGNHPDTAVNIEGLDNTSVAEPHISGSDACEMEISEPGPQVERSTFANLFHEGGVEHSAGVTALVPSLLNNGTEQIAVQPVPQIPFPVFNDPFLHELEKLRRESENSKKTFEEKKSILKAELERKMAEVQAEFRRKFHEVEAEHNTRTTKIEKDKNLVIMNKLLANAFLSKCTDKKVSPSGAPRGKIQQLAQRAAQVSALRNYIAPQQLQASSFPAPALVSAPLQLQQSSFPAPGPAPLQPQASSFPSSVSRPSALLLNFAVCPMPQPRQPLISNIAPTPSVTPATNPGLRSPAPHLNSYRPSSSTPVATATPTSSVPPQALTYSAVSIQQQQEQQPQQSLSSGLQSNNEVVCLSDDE
# T1: AIPP3-FLAG (Arabidopsis thaliana) (UniProt Q8RXT5)
# T1 sequence: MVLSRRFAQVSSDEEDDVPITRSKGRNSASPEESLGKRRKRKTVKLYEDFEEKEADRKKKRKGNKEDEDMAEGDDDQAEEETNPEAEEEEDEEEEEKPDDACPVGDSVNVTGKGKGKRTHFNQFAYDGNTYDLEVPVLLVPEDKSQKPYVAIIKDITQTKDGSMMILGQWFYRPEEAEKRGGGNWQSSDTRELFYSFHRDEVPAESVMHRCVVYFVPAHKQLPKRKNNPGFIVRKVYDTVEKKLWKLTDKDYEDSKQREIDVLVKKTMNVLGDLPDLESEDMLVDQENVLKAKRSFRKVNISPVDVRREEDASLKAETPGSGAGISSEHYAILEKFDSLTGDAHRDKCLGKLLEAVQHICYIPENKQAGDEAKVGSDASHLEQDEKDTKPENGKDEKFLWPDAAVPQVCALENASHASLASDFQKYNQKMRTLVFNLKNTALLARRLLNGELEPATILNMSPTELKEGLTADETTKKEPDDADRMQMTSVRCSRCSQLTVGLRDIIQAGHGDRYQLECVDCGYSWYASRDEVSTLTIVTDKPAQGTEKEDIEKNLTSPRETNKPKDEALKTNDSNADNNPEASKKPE
# T2: PHD1-FLAG (Arabidopsis thaliana) (UniProt B3H578)
# T2 sequence: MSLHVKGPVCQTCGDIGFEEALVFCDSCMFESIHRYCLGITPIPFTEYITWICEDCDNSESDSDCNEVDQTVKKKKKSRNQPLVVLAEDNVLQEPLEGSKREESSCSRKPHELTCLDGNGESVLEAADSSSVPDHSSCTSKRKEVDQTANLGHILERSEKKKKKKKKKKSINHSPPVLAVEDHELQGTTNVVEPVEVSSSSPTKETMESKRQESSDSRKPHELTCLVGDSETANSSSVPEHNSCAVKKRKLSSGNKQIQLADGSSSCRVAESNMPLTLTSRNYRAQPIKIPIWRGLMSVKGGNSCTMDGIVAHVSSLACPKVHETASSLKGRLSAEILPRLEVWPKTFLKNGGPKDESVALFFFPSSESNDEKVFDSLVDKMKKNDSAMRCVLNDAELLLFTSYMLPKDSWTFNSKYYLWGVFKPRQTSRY
# T3: PIAL2-FLAG (Arabidopsis thaliana) (UniProt F4JYG0)
# T3 sequence: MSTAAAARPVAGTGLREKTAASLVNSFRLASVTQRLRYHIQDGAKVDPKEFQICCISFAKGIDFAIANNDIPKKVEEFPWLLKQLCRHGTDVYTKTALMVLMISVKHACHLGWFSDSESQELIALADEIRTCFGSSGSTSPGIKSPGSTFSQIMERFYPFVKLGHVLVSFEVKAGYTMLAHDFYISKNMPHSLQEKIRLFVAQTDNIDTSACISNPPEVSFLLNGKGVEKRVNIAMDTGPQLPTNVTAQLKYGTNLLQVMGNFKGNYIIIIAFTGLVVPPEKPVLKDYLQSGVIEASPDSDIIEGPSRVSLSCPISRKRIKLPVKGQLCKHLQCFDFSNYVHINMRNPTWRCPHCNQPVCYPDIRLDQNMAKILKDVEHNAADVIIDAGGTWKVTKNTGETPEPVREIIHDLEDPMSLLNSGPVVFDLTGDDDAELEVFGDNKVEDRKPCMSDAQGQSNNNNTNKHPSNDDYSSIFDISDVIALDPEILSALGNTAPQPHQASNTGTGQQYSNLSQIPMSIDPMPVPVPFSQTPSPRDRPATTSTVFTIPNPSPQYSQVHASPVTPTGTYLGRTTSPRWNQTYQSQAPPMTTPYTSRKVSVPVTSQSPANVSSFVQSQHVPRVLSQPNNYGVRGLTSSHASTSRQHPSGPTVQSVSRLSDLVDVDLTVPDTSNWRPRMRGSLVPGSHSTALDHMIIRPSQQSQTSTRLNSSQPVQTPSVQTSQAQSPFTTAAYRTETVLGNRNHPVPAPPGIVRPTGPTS
# B1: PHD1, endogenous (protein, UniProt B3H578 1-431)
# chain: T2 sequence
# B2: PIAL2, endogenous (protein, UniProt F4JYG0 1-760)
# chain: T3 sequence
# B3: PIAL1, endogenous (protein, UniProt A0A0A7EPL0 1-847)
# chain: MVIPATSRFGFRAEFNTKEFQASCISLANEIDAAIGRNEVPGNIQELALILNNVCRRKCDDYQTRAVVMALMISVKSACQLGWFPERETQELLAIIDLMWNGFSCPENVTSCVNSPVTLISQVIERFYPCVKLGHILVSFEAKPESKMMMKDFHISKKMPHSPKQKVGLFVVRTEDISRSNCIVHPQGVSFLLNGKGIDKRVNISMESGPQLPTNVTALLNLGANLLQAIGCFGGSYLIAIAFMDVIPLPNKPLLKDYVHPEVVGSNSDCDIIEGPSRISLSCPISRTRIKLPVKGHVCKHLQCFDFWNYVNMNTRRPSWRCPHCNQSVCYTDIRVDQKLRKILEEVGRNAADVVISADGTWMVETENDEDVELVPETTHDHGDPNSFINLGPTVKNPARDENEMETSTQVEEHNPCLSEIQGPSNDTHRPASDYTMLNQSHTSTNTLPQLPRTLNAFDGQQFVNLPQVINTRDSPASQALPMTFSPTPSPQDILATNAANFGTSMPAAQSSQFQGSHVTSLGNCEGRTSDLMARWNHIYGRVQTQFPPAPLSHHHYSMQNQSPSPAQQRPVPSYIAHPQTFHVNYGENADQRWMPSSIAHPQTLPVNYGGNTNQRPIPSSIAHPQTLPVNYRGNTDHRSTPYSITHLQTLLNYGGNADQRPMPSSITNLQTLPATYGGYAHQRPMSSSITHPRTSPVNYGGTPDQRPMPSSITHPQTLPVSYGGTTDQILNPGGAMGQFSSREFMNLTPANTENWRPQSRMRGSVAPGTGYDHMIIHPTRPVHPQAQTPPAPLSTSYDGADEIQAFIGHPSYPVSNNETQAGTSSLPVAEGLGYSGSFWSMPPETW
# B4: AIPP3, endogenous (protein, UniProt Q8RXT5 1-587)
# chain: T1 sequence
# Molecular target: T1, AIPP3-FLAG (Arabidopsis thaliana)
# Assay: affinity purification with mass spectrometry; native IP-MS from unopened flower buds of FLAG-tagged transgenic plants, Col-0 as control; IP buffer 50 mM Tris-HCl pH 8.0, 150 mM NaCl, 5 mM EDTA, 10% glycerol, 0.1% Tergitol; anti-FLAG M2 magnetic beads, 4 °C, 2 h; eluted with 3xFLAG peptides
row,binding,Binder
1,binds,B1
2,binds,B2
3,binds,B3

# Molecular target: MOM1-FLAG (MORPHEUS' MOLECULE1 with C-terminal 3xFLAG) (Arabidopsis thaliana) (UniProt Q9M658)
# Assay: as above
row,binding,Binder
1,binds,B2
2,binds,B3
3,binds,B4

# Molecular target: MOM2-FLAG (Arabidopsis thaliana)
# Assay: as above
row,binding,Binder
1,binds,B1
2,binds,B2
3,binds,B3
4,binds,B4

# Molecular target: T2, PHD1-FLAG (Arabidopsis thaliana)
# Assay: as above
row,binding,Binder
1,binds,B2
2,binds,B3
3,binds,B4

# Molecular target: T3, PIAL2-FLAG (Arabidopsis thaliana)
# Assay: as above
row,binding,Binder
1,binds,B1
2,binds,B3
3,binds,B4

# Molecular target: miniMOM1-FLAG (CMM2 domain of MOM1 together with a nuclear localization signal) (Arabidopsis thaliana)
# Assay: as above
row,binding,Binder
1,no binding,B1
2,binds,B2
3,binds,B3
4,no binding,B4

# These are yes or no findings as the source states them, for the method shown. In cells and extracts the contact can be indirect. A yes stands for co-enrichment or nearness to the bait. Other partners may have been found. For some assays here: No binding means not detected with the bait. For some assays here: Sequences can lack the tags named with a protein.
